{
  "source": "patent US20220135526A1",
  "about": "“QUATERNARY AMMONIUM SALT COMPOUND, PREPARATION METHOD THEREFOR AND USE THEREOF” (WEST CHINA HOSPITAL, SICHUAN UNIVERSITY, priority 2019, published 2022)",
  "test_system": "back skin of SD rat",
  "assay": "Local anesthetic effect by subcutaneous infiltration (back skin, Von Frey fiber 100 g)",
  "format": "in vivo",
  "details": "SD rats, 0.5 mL subcutaneous in saline; compounds 6 mmol/L, controls 0.75% (22 mmol/L) and 2% (74 mmol/L)",
  "description": "After the back of SD rat weighing 250-300 g (half female and half male) was shaved and disinfected, a circle with a diameter of about 1.5 cm was drawn on the side of the exposed back, and the circle is divided into 6 equal parts. […] Among the Von Frey fiber yarns, the one with a strength of 100 g was bound to the needle for local skin stimulation. One minute After the drug was injected, the above method was used to stimulate in 6 divisions. […] If back skin contraction was observed, the local anesthetic effect was considered as loss. […] Each compound was tested with 10 rats.",
  "note": "Counter-ions that a name gives are not always drawn.",
  "data": [
    {"smiles": "CCN(CC)CC(=O)Nc1c(C)cccc1C", "note": "[2% lidocaine hydrochloride, lidocaine hydrochloride, reference compound]", "values": [
      {"measurement": "Duration of local anesthesia (median)", "result": 4, "unit": "h"}
    ]}
  ]
}
